Reference: paper PMC3771913
Results are given in words; binding and its absence hold for the method and conditions named. Binding seen in cells or lysates may run through a third protein.

Molecular target: T1, Dorsal (Drosophila (endogenous in wild-type ovaries)) (UniProt P15330)
T1 sequence: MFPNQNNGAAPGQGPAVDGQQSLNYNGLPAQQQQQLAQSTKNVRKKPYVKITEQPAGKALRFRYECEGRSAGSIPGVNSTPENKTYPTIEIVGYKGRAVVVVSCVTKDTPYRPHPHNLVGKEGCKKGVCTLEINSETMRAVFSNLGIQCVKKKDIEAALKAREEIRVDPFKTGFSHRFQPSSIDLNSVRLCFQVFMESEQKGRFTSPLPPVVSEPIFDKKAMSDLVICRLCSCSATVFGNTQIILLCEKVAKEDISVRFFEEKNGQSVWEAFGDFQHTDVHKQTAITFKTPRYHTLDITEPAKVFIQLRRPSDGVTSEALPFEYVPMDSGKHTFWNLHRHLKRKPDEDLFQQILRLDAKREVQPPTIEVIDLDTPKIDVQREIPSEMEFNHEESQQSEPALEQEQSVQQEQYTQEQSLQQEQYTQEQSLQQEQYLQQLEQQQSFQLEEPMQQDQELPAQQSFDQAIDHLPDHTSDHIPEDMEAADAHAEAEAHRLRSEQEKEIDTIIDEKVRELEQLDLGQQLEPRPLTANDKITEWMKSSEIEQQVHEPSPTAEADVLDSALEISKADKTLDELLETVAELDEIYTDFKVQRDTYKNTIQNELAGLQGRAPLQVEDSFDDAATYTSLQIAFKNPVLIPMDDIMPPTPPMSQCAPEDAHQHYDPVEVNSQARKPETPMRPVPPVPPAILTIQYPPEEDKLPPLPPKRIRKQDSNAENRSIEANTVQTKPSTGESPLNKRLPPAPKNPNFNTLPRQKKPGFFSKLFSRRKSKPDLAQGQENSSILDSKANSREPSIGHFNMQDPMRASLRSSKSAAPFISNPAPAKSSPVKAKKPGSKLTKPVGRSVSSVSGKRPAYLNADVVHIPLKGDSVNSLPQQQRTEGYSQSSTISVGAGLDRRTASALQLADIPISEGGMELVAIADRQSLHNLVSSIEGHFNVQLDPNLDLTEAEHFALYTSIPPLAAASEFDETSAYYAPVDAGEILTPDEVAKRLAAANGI
Assay: co-IP; wild-type ovary extracts in IP buffer (20 mM Hepes pH 7.5, 150 mM NaCl, 0.5% Triton X-100) with RNase A; antibodies cross-linked to Protein G Plus/Protein A-agarose beads, overnight at 4°C; Western blot

Row | binding | Substance
1 | no binding | Rasputin (Rin)
2 | no binding | Orb (oo18 RNA-binding)
